According to patent US7960377B2 (priority 2008, dated 2011):
Like-named read-outs stand apart in the source and are kept apart here. Some results were stated once for a whole list of compounds, not compound by compound.

Sequences of proteins named here, by UniProt entry; tags and fusion partners are left off.
UniProt P34972, whole entry: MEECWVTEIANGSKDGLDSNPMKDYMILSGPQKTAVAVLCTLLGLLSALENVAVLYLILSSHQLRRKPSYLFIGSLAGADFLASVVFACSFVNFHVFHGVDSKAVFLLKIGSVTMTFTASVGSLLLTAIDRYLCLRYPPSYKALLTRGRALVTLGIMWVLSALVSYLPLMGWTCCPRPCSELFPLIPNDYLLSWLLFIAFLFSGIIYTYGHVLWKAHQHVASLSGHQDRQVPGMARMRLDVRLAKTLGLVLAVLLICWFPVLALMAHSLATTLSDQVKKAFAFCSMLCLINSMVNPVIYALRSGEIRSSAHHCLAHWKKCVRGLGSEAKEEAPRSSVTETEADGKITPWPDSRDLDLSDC
UniProt P21554, whole entry: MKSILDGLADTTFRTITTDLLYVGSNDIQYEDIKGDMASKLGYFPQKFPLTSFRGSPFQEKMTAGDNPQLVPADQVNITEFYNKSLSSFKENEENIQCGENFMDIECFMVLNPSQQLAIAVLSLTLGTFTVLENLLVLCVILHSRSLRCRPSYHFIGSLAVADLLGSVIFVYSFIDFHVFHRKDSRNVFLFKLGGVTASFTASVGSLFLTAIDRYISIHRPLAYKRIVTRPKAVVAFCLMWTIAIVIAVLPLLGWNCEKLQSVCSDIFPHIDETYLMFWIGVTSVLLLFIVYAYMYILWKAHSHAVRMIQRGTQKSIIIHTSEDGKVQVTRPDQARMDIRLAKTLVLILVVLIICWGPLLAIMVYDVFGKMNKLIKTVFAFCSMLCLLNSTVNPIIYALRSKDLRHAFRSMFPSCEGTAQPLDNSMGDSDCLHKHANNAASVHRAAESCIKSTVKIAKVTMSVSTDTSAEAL

How the values were obtained:
Format in all cases: cell-based
human CB2 receptor = human CB2 receptor (Homo sapiens, UniProt P34972); settings: read-out: EC50 values for human CB2 receptor, change in intracellular cAMP, CHO-K1 hCB2 cells
human CB1 receptor = human CB1 receptor (Homo sapiens, UniProt P21554); settings: read-out: EC50 values for human CB1 receptor, change in intracellular cAMP, CHO-K1 hCB1 cells
rat CB2 receptor = target: T1, rat CB2 receptor (Rattus norvegicus, UniProt Q9QZN9); settings: read-out: EC50 values for rat CB2 receptor; change in intracellular cAMP, CHO-K1 rCB2 cells; EC50 bins in nM
T1 sequence (Q9QZN9 1-360): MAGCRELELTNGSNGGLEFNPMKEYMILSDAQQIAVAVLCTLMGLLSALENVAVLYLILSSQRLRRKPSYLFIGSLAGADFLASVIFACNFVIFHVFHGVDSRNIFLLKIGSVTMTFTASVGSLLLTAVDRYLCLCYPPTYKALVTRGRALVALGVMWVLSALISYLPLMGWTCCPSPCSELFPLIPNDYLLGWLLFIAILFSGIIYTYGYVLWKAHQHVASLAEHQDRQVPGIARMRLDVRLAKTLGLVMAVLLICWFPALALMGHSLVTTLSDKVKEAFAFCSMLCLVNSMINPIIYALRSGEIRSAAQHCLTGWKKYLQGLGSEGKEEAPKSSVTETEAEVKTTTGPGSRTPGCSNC

[1] = bin >300 nM-3 μM, units given in the value

| SMILES | EC50 (human CB2 receptor; [1]) | EC50 (human CB1 receptor; bin in μM) | EC50 (rat CB2 receptor) | EC50 (human CB2 receptor; EC50 bins in nM) | EC50 (human CB1 receptor; [1]) |
| --- | --- | --- | --- | --- | --- |
| CC(C)(C)NC(=O)c1cnc2c(c1)N(S(=O)(=O)c1ccccc1)CCO2 [Example 5, N-tert-butyl-1-(phenyl-sulfonyl)-2,3-dihydro-1H-pyrido[2,3-b][1,4]oxazine-7-carboxamide] | 300 to 3000 nM | 3 to 30 µM | 30 to 300 nM |  |  |
| CC(C)(C)NC(=O)c1cnc2c(c1)N(S(=O)(=O)c1ccc(Oc3ccccc3)cc1)CCO2 [Example 93, N-tert-butyl-1-(4-phenoxyphenylsulfonyl)-2,3-dihydro-1H-pyrido[2,3-b][1,4]oxazine-7-carboxamide] |  | 3 to 30 µM | 30 to 300 nM | 30 to 300 nM |  |
| COc1ccc(S(=O)(=O)N2CCOc3ncc(C(=O)NC(C)(C)CO)cc32)cc1F [Example 101, 1-(3-fluoro-4-methoxyphenylsulfonyl)-N-(1-hydroxy-2-methylpropan-2-yl)-2,3-dihydro-1H-pyrido[2,3-b][1,4]oxazine-7-carboxamide] | 300 to 3000 nM | 3 to 30 µM | 30 to 300 nM |  |  |
| O=C(c1cnc2c(c1)N(S(=O)(=O)c1ccc(Cl)c(Cl)c1)CCO2)N1CCN(c2ccccn2)CC1 [Example 117] |  |  | 30 to 300 nM |  | 0.3 to 3 µM |
| O=C(c1cnc2c(c1)N(S(=O)(=O)c1ccc(Cl)c(Cl)c1)CCO2)N1CCC1 [Example 130, azetidin-1-yl(1-(3,4-dichlorophenylsulfonyl)-2,3-dihydro-1H-pyrido[2,3-b][1,4]oxazin-7-yl)methanone] | 300 to 3000 nM | 3 to 30 µM | 30 to 300 nM |  |  |
| CC(C)(CO)CNC(=O)c1cnc2c(c1)N(S(=O)(=O)N1CCOCC1)CCO2 [Example 141, N-(3-hydroxy-2,2-dimethylpropyl)-1-(morpholinosulfonyl)-2,3-dihydro-1H-pyrido[2,3-b][1,4]oxazine-7-carboxamide] | 300 to 3000 nM | 3 to 30 µM | 30 to 300 nM |  |  |
| CC(C)(C)NC(=O)c1cnc2c(c1)N(S(=O)(=O)N1CCC(F)(F)C1)CCO2 [Example 163, N-tert-butyl-1-(3,3-difluoropyrrolidin-1-ylsulfonyl)-2,3-dihydro-1H-pyrido[2,3-b][1,4]oxazine-7-carboxamide] |  | 3 to 30 µM |  | 30 to 300 nM |  |
| CCC(C)(C)NC(=O)c1cnc2c(c1)N(S(=O)(=O)N1CCC(F)(F)C1)CCO2 [Example 164, 1-(3,3-difluoropyrrolidin-1-ylsulfonyl)-N-tert-pentyl-2,3-dihydro-1H-pyrido[2,3-b][1,4]oxazine-7-carboxamide] |  | 3 to 30 µM |  | 30 to 300 nM |  |
| CC(C)(C)c1cc(NC(=O)c2cnc3c(c2)N(S(=O)(=O)N2CCC(F)(F)C2)CCO3)no1 [Example 165, N-(5-tert-butylisoxazol-3-yl)-1-(3,3-difluoro-pyrrolidin-1-ylsulfonyl)-2,3-dihydro-1H-pyrido-[2,3-b][1,4]oxazine-7-carboxamide] |  |  | 30 to 300 nM |  | 0.3 to 3 µM |
| CC(C)(CO)NC(=O)c1cnc2c(c1)N(S(=O)(=O)N1CCC(F)CC1)CCO2 [Example 168, 1-(4-fluoropiperidin-1-ylsulfonyl)-N-(1-hydroxy-2-methylpropan-2-yl)-2,3-dihydro-1H-pyrido[2,3-b][1,4]oxazine-7-carboxamide] |  | 3 to 30 µM |  | 30 to 300 nM |  |
| CC1CCN(S(=O)(=O)N2CCOc3ncc(C(=O)NCC(C)(C)CO)cc32)CC1 [Example 173, N-(3-hydroxy-2,2-dimethylpropyl)-1-(4-methylpiperidin-1-ylsulfonyl)-2,3-dihydro-1H-pyrido[2,3-b][1,4] oxazine-7-carboxamide] |  | 3 to 30 µM |  | 30 to 300 nM |  |
| CC(C)(C)NC(=O)c1cnc2c(c1)N(S(=O)(=O)N1Cc3ccccc3C1)CCO2 [Example 183, N-tert-butyl-1-(isoindolin-2-ylsulfonyl)-2,3-dihydro-1H-pyrido[2,3-b][1,4]oxazine-7-carboxamide] |  | 3 to 30 µM |  | 30 to 300 nM |  |
| CC(C)(C)NC(=O)c1cnc2c(c1)N(S(=O)(=O)N1CCc3ccccc3C1)CCO2 [Example 188, N-tert-butyl-1-(3,4-dihydroisoquinolin-2(1H)-ylsulfonyl)-2,3-dihydro-1H-pyrido[2,3-b][1,4]oxazine-7-carboxamide] |  |  | 30 to 300 nM |  | 0.3 to 3 µM |
| CC(C)(CO)NC(=O)c1cnc2c(c1)N(S(=O)(=O)N1CC(F)(F)C1)CCO2 [Example 195, 1-(3,3-difluoroazetidin-1-ylsulfonyl)-N-(1-hydroxy-2-methylpropan-2-yl)-2,3-dihydro-1H-pyrido[2,3-b][1,4]oxazine-7-carboxamide] |  | 3 to 30 µM | 30 to 300 nM |  |  |
| COC(=O)C1(NC(=O)c2cnc3c(c2)N(S(=O)(=O)c2ccc(Cl)c(Cl)c2)CCO3)CCOCC1 [Example 205, methyl 4-(1-(3,4-dichlorophenylsulfonyl)-2,3-dihydro-1H-pyrido[2,3-b][1,4]oxazine-7-carboxamido)tetrahydro-2H-pyran-4-carboxylate] | 300 to 3000 nM | 3 to 30 µM |  |  |  |
| CC(C)(C)NC(=O)c1noc(-c2cnc3c(c2)N(S(=O)(=O)c2ccc(F)cc2)CCO3)n1 [Example 214, N-tert-butyl-5-(1-(4-fluoro-phenylsulfonyl)-2,3-dihydro-1H-pyrido[2,3-b][1,4]oxazin-7-yl)-1,2,4-oxadiazole-3-carboxamide] | 300 to 3000 nM |  | 30 to 300 nM |  | 0.3 to 3 µM |
| COCCCNC(=O)c1noc(-c2cnc3c(c2)N(S(=O)(=O)c2ccc(F)cc2)CCO3)n1 [Example 216, 5-(1-(4-fluorophenylsulfonyl)-2,3-dihydro-1H-pyrido[2,3-b] [1,4]oxazin-7-yl)-N-(3-methoxypropyl)-1,2,4-oxadiazole-3-carboxamide] | 300 to 3000 nM | 3 to 30 µM |  |  |  |
| O=S(=O)(c1ccc(F)cc1)N1CCOc2ncc(-c3nc4ncccc4o3)cc21 [Example 217] |  |  |  | 30 to 300 nM | 0.3 to 3 µM |
| O=S(=O)(c1ccc(C(F)(F)F)cc1)N1CCOc2ncc(-c3ncc(-c4ccccc4)o3)cc21 [Example 227, 7-(5-phenyloxazol-2-yl)-1-(4-(trifluoromethyl)phenyl-sulfonyl)-2,3-dihydro-1H-pyrido[2,3-b][1,4]oxazine] | 300 to 3000 nM |  |  |  | 0.3 to 3 µM |
